Measurements: PMC6683498, “The conserved actinobacterial transcriptional regulator FtsR controls expression of ftsZ and further target genes and influences growth and cell division in Corynebacterium glutamicum”

Biological target: T1, FtsR-Strep (Corynebacterium glutamicum ATCC13032) (UniProt Q8NQJ2)
T1 sequence (looked up, limits assumed): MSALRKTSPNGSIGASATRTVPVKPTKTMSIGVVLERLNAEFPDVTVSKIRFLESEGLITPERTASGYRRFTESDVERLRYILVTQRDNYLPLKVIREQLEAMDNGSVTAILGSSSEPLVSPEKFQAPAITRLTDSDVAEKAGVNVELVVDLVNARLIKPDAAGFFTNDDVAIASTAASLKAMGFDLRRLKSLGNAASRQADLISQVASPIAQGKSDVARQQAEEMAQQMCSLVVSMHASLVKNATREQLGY
Test: EMSA
Conditions: 1 uM DNA, incomplete shift even at 8.5-fold molar excess of dimer; EMSA: 10 mM Tris-HCl pH 7.5, 30 mM NaCl, 1.5 mM Na2EDTA, room temperature, 30 min; 15% native PAGE in 1x TBE (competition EMSA: 10% gel); recombinant protein; protein details: C-terminal AS linker + Strep-tag II (WSHPQFEK)

“GAAGCCACATGACATATGTCATGAAAATTA (double strand) [cg1081 promoter 30-bp control oligo]”: binds more weakly.

Construct, isoform or probe ends are uncertain for at least one entry. The comparison behind a weaker result is the experiment's own reference, which may not be listed here. Where a protein sequence is shown, tags need not be part of it.
